Source: paper PMC11844279

By UniProt entry, the sequences of proteins in these tests, tags left out.
UniProt Q96DH6: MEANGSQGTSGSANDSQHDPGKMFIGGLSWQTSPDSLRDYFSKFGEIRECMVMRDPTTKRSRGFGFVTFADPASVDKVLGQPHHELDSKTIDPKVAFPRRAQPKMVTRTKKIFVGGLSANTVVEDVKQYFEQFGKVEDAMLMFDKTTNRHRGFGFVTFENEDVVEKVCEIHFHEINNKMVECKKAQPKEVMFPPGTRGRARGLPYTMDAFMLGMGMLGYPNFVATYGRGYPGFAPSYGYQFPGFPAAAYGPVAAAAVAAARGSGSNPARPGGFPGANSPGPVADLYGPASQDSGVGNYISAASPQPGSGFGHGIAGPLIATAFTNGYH
UniProt P08670: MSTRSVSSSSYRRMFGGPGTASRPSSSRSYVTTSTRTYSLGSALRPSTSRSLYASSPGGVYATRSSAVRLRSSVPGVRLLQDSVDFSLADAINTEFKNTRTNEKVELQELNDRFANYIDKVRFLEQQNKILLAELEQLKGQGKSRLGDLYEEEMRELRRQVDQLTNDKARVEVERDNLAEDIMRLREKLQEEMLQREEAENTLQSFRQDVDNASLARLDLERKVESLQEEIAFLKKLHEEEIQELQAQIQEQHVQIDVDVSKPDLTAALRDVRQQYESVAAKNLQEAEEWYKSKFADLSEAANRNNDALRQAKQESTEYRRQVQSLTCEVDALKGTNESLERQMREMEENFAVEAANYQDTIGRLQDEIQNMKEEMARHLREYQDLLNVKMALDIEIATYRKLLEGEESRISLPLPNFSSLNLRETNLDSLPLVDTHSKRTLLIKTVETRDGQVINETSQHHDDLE

Biological target: Musashi RNA binding protein 2 (MSI2) (human (endogenous in MDA-MB-231)) (UniProt Q96DH6)
Assay: affinity purification with mass spectrometry; MSI2 antibody coupled to Dynabeads M-270 epoxy beads (7 µg/mg beads) incubated at 4 °C with lysates (1X IP buffer) of untreated MDA-MB-231 and DEHP-exposed clone #1 cells; eluate resolved by SDS-PAGE, bands cut, trypsin digest, LC-MS/MS (Orbitrap Elite), Mascot search against NCBI RefSeq

- binding: binds
Substance: vimentin (from UniProt P08670 1-466)

Results are given in words; binding and its absence hold for the method and conditions named. Binding seen in cells or lysates may run through a third protein. Here binding means that the protein was enriched with, or labelled near, the bait; the list need not be complete.
